From publication PMC4664558 (Clinical Pharmacology and Therapeutics, 2015)

Legend:
OATP1B2 = biological target: T1, OATP1B2 (Rattus norvegicus, UniProt Q9QZX8); assay: Inhibition of E217βDG active uptake in cryopreserved rat hepatocytes
T1 sequence (Q9QZX8 1-687): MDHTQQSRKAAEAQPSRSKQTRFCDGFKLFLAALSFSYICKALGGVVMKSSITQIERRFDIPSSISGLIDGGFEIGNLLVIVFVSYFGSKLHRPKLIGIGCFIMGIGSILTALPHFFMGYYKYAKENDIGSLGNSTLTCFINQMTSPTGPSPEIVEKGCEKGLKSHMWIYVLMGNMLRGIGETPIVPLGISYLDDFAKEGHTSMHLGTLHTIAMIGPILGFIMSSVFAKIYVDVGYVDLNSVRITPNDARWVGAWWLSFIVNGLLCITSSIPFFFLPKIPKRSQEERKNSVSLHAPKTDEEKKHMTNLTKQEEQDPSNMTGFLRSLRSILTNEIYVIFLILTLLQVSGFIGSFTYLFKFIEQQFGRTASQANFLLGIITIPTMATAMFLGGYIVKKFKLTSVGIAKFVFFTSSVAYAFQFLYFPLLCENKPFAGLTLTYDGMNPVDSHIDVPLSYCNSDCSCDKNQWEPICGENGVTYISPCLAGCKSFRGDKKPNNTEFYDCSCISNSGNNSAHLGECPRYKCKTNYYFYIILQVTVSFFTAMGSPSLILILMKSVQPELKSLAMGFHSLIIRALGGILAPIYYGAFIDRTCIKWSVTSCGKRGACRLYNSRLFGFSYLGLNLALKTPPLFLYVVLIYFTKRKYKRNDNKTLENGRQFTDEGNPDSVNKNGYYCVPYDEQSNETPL

[1] = Peak plasma / gut / hepatic inlet concentration at the highest clinical dose; conditions: Cmax + (ka x Dose x FaFg/Qh)

SMILES: Clc1ccc2c(c1)CCc1cccnc1C2=C1CCNCC1 [Desloratadine]
- IC50 (OATP1B2): 140 µM
- Maximal hepatic inlet concentration ([I]inlet,max) [1]: 1.088 µM
